{
  "source": "PubChem BioAssay AID1347423",
  "about": "(Functional Genomics Laboratory (NCATS/FGL), 2020)",
  "note": "About 210 (0.4%) of roughly 52,000 sequences were called active.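 The calls were made as follows: active = gene whose silencing raises cell survival under the drug, median off-target-corrected z-score across its silencing RNAs 2 or more; inactive = the rest.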 The list shows a part of the results.",
  "data": [
    {"assay": "Resistance to Poly (ADP-Ribose) Polymerase inhibitor: Gene Identification via Genome-wide siRNA Screen", "details": "mouse BRCA2 R2336H ES cells, olaparib, CellTiter-Glo viability; hits give high values", "procedure,_shortened": "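Genome-wide siRNA screen (3 siRNAs/gene, 20 nM) in mouse ES cells carrying hypomorphic BRCA2 R2336H; olaparib 500 nM added 48 h post-transfection, CellTiter-Glo viability 72 h later. Normalized to plate-median negative control; MAD z-scores, gene median, seed-adjusted.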", "values": [
      {"sequence": "GGCCAUCAAACACCAGGUGTT against Plxnb2", "z-score": "inactive: -1.43"},
      {"sequence": "GGUAAACGGAUGGAAUGGGTT against Gspt2", "z-score": "inactive: 0.354"},
      {"sequence": "CCGUCACUUUUAACCAUGUTT against Apeg1", "z-score": "inactive: 1.88"},
      {"sequence": "GGCAUAACAGAGAUGAUGATT against 4930506L13Rik", "z-score": "inactive: -1.05"},
      {"sequence": "CCAAUACCCUCAAGAUUCUTT against Itih5", "z-score": "inactive: 0.59"},
      {"sequence": "GGUGGAAAGGAACAUUGUGTT against Ppl", "z-score": "inactive: -1.03"},
      {"sequence": "GCGUGUGACCAGAUUCGUCTT against Slc1a2", "z-score": "inactive: -0.152"},
      {"sequence": "GCUAAGUUGCUUGUCUUUATT against Acox1", "z-score": "inactive: 0.674"},
      {"sequence": "GUACCAGAAGUGAGUUCAGTT against Leap2", "z-score": "inactive: -3.32"},
      {"sequence": "GGUCAUGCUCAUCUCCUCCTT against Nelf", "z-score": "inactive: -0.596"},
      {"sequence": "GGAUUUCAUUAAGCUGAAGTT against D930010J01Rik", "z-score": "inactive: 2.52"},
      {"sequence": "CCACUGUGCUCAAUUUGCATT against Slc9a2", "z-score": "inactive: 0.696"},
      {"sequence": "GGAAUAAGUACCUCAUCUUTT against Fbxw5", "z-score": "inactive: -2.58"},
      {"sequence": "CCUAUUCAGUCGCUCAGAGTT against Pacs1", "z-score": "inactive: -0.123"},
      {"sequence": "CCUGCAUUUACUCAACUUGTT against Snrpe", "z-score": "inactive: -2.84"},
      {"sequence": "GGUGAACUGUAAUGGCUUCTT against Smyd2", "z-score": "inactive: -0.123"},
      {"sequence": "GCAGUGUUCGAAGAUAUGATT against Ehhadh", "z-score": "inactive: 2.28"},
      {"sequence": "GGAUGCACUGAUUUGGUUATT against Ptger2", "z-score": "inactive: 1.11"},
      {"sequence": "GGCUACGCUUUUAUUUCCCTT against Jak3", "z-score": "inactive: 1.94"},
      {"sequence": "GGUGGUAUUGAAAAGGAAATT against B930093C12Rik", "z-score": "inactive: 0.752"},
      {"sequence": "GGCGAAUUGAAGGAGACCATT against Tmod3", "z-score": "inactive: 1.73"},
      {"sequence": "GCGAAUGGAAAAUGAAGAUTT against BC031575", "z-score": "inactive: -1.39"},
      {"sequence": "GGCCUUGAUAAUGUUCGACTT against Coq6", "z-score": "inactive: 1.37"},
      {"sequence": "GGGUAACAGAUGAAGGGUCTT against Synpo2l", "z-score": "inactive: 3.5"},
      {"sequence": "CGACCAUACGAAUGCGGCATT against 6430526N21Rik", "z-score": "inactive: -0.647"},
      {"sequence": "GGAAUAGGAAAUUAGCACATT against Thnsl1", "z-score": "inactive: -0.738"},
      {"sequence": "GGCAAAUAAAUUCAGCAAGTT against D19Bwg1357e", "z-score": "inactive: 0.164"},
      {"sequence": "GGAAAUGAAUAUGAACCUUTT against 5330408M12Rik", "z-score": "inactive: -0.0836"},
      {"sequence": "GCUGAGUCUCAUCAAAGUCTT against Qtrtd1", "z-score": "inactive: -0.457"},
      {"sequence": "GACUUCUCCUGACAGGCUGTT against Olfr61", "z-score": "inactive: -0.941"},
      {"sequence": "GCCCGCGUUGCCUAAGUAUTT against Elavl4", "z-score": "inactive: -2.04"},
      {"sequence": "GGCCGUGAAACACUUUCGUTT against Lgi3", "z-score": "inactive: -0.552"},
      {"sequence": "CCUCGCUGUAUCUUAACAUTT against Dppa2", "z-score": "inactive: -0.883"},
      {"sequence": "CCCAGAAAUAAUAGGGUCGTT against BC037393", "z-score": "inactive: -0.478"},
      {"sequence": "GGAUGUGAUUGAUAUUGAATT against 2510004L20Rik", "z-score": "inactive: 1.48"},
      {"sequence": "GGAUGUGGAUGAAUGCAGATT against Masp2", "z-score": "inactive: -0.454"},
      {"sequence": "GGUUUACCAUGCAUAUUAUTT against Txnrd2", "z-score": "inactive: -0.239"},
      {"sequence": "GCCAUAUGGGCAGAUGUUUTT against Sec24b", "z-score": "inactive: -0.0293"},
      {"sequence": "GGAGCUGAUCGAGAAGAUCTT against Xrcc3", "z-score": "inactive: 0.134"},
      {"sequence": "GCCAUCGAUGUACUGAGCUTT against Psme2", "z-score": "inactive: -0.265"},
      {"sequence": "CGUGGUUGUACAUAUUUGUTT against Trip10", "z-score": "inactive: -0.525"},
      {"sequence": "GGCCAGAGAAGAUUACUUUTT against Jub", "z-score": "inactive: 0.0963"},
      {"sequence": "CGAUGAUACAGACAGCAACTT against 5730509C05Rik", "z-score": "inactive: 0.498"},
      {"sequence": "GGAAGGAAGUGGGUUACUUTT against Olfr156", "z-score": "inactive: -0.626"},
      {"sequence": "CCAGGAUCACCAAAAUGGATT against Slit3", "z-score": "inactive: -1.62"},
      {"sequence": "GGGUGAUGUCACUGUCAUCTT against Gabrg2", "z-score": "inactive: -0.57"},
      {"sequence": "GGUGCUCAAAUCCUCUUGATT against Ctps", "z-score": "inactive: -2.76"},
      {"sequence": "GGUGUUUAAUAAUGUUGUCTT against Olfr976", "z-score": "inactive: 0.153"},
      {"sequence": "GGAGAUAUUCUGGUAUGACTT against Orc1l", "z-score": "inactive: 0.0825"},
      {"sequence": "GCCUGAGAAGAUAGACUGATT against Pigs", "z-score": "inactive: -1.13"},
      {"sequence": "GGACAAUCAACUAAAGCUCTT against Stab2", "z-score": "inactive: 2.42"},
      {"sequence": "GGAUGGUCGAAACAAUAACTT against Stk32b", "z-score": "inactive: 1.76"},
      {"sequence": "GGAGCUAUUGACACAAGUCTT against E230025N22", "z-score": "inactive: -3.38"},
      {"sequence": "GUUAUGGAGCAAUGUCUAUTT against Olfr1248", "z-score": "inactive: -0.524"},
      {"sequence": "GGAGAUGAAGAAGAUAUUGTT against Smoc2", "z-score": "inactive: -1.04"},
      {"sequence": "GCCUGUACAGACUACGCAGTT against 2310061N23Rik", "z-score": "inactive: 1.85"},
      {"sequence": "GAAGGGACUUCAAAGUUGATT against Ndufb10", "z-score": "inactive: 0.289"},
      {"sequence": "GGCAUACACCACUUAGUAATT against Sumo2", "z-score": "inactive: -1.11"},
      {"sequence": "GGAAGAUUAAGCGAGAUAUTT against Rnf146", "z-score": "inactive: -1.41"},
      {"sequence": "GGGUUGCUACUCACAAUGUTT against Syngr2", "z-score": "inactive: -0.297"},
      {"sequence": "AAAAGAUGCAUGUCUCCUUTT against Hbq1", "z-score": "inactive: 1.01"},
      {"sequence": "GGAUGAGAACAGCAACCAGTT against Bcl7b", "z-score": "inactive: -1.78"},
      {"sequence": "GCCCAUAAACUGAUGGUGGTT against C530046L02Rik", "z-score": "inactive: 0.306"},
      {"sequence": "CCAGUAAAAAUUGAAGGCUTT against Capza2", "z-score": "inactive: 0.0355"},
      {"sequence": "GCCUGAACUCCUAUGAGCUTT against 2410039E07Rik", "z-score": "inactive: 0.309"},
      {"sequence": "GCUGCUUUGCUAUCUCCUGTT against Apof", "z-score": "inactive: -2.5"},
      {"sequence": "GCUGUCUACAGACAUCGAUTT against Ung", "z-score": "inactive: -0.285"},
      {"sequence": "GGAUGUCAGCUGGUGGUUATT against Tmprss6", "z-score": "inactive: -0.447"},
      {"sequence": "GCAGAGGACAGGCUUACUUTT against BC052055", "z-score": "inactive: 1.46"},
      {"sequence": "GGACUCUGUCUGUAAACAGTT against Nup43", "z-score": "inactive: 2.73"},
      {"sequence": "GGCCAUGAUCAAAACGUAUTT against Leng8", "z-score": "inactive: 0.0289"},
      {"sequence": "GGACAUUAUUAUGGAUGAUTT against Arl2bp", "z-score": "inactive: -0.409"},
      {"sequence": "GGGUUCUUUUAGGUUGUCATT against E030025D05Rik", "z-score": "inactive: 1.09"},
      {"sequence": "GGAAUCCUCGGCAGAUAAATT against Rpl24", "z-score": "inactive: -2.66"},
      {"sequence": "CCAUGUGAAAGUAUAAGAATT against Fmo2", "z-score": "inactive: -0.309"},
      {"sequence": "GGGUUUUGUUAAUACAUACTT against Usmg1", "z-score": "inactive: -2.55"},
      {"sequence": "GCAACAAGUUCGAAAUGAATT against Etv6", "z-score": "inactive: 1.26"},
      {"sequence": "GCAGGAAGUACUCCUAUCCTT against D030041N04Rik", "z-score": "inactive: 1.65"},
      {"sequence": "UUAUGCUGACCUCUAUCUUTT against Akr1c19", "z-score": "inactive: 0.313"},
      {"sequence": "GGCAUCGUAAAGGACAUCATT against Rpl8", "z-score": "inactive: -2.44"},
      {"sequence": "CCCUUUAAACCUCUUCAGATT against St7l", "z-score": "inactive: 0.447"},
      {"sequence": "GCCAACAACAUCUGUUUCUTT against BC004044", "z-score": "inactive: -0.014"},
      {"sequence": "GGUAUAUGUCACAAUGCAUTT against Farsla", "z-score": "inactive: -0.831"},
      {"sequence": "GCUACCUCUGACGACCAAGTT against Slc23a3", "z-score": "inactive: 0.0768"},
      {"sequence": "GGAUGGUAGGAUGUAGAUCTT against C630007B19Rik", "z-score": "inactive: -0.206"},
      {"sequence": "GGAGAGGAGUGUGUCAUCUTT against Lincr", "z-score": "inactive: -1.39"},
      {"sequence": "CCCGUAAGGUAACAAACCGTT against Polr3k", "z-score": "inactive: -0.888"},
      {"sequence": "GGAAAUUCUACAAGGGCAATT against Rpl35", "z-score": "inactive: -3.02"},
      {"sequence": "GGUGGAGAAACAAAUUAGUTT against Rab9", "z-score": "inactive: -0.507"},
      {"sequence": "GCCGAGCUCAAAACACAACTT against Txnl4", "z-score": "inactive: -0.673"},
      {"sequence": "GGGUAAUUCCCAGUGAAGATT against Lpin2", "z-score": "inactive: -0.422"},
      {"sequence": "GCAUAGCAGAGAUGAUUCUTT against Trip12", "z-score": "inactive: -1.25"},
      {"sequence": "GGACAUUGGCCAUUUGGUUTT against Fpr1", "z-score": "inactive: -0.184"},
      {"sequence": "GGAGGCAUUCGCAUAGACGTT against G430041M01Rik", "z-score": "inactive: -0.127"},
      {"sequence": "CCUCUACAGGCAAAAUUAGTT against Aurkb", "z-score": "inactive: 0.553"},
      {"sequence": "GGGUGUAACAAAAUAAAGUTT against Ptprg", "z-score": "inactive: 0.81"},
      {"sequence": "GGAUUUUACAUUUCUACACTT against Prss7", "z-score": "inactive: 2.23"},
      {"sequence": "GGUAACAUUUUUUUCCUGUTT against Pla2g3", "z-score": "inactive: -0.425"},
      {"sequence": "GGACUUCUACCUGUCCAUATT against Crtap", "z-score": "inactive: 1.11"},
      {"sequence": "GGUGUGAUGGAGUUCUUAUTT against Ndufs1", "z-score": "inactive: 0.281"},
      {"sequence": "GGUUUCAAGGAAAGACUAATT against Kcnj2", "z-score": "inactive: -0.704"},
      {"sequence": "GGUCACCCUGUUUAGGCCUTT against Fgd3", "z-score": "inactive: 0.202"},
      {"sequence": "GCGCAGAGUUUGACUAUCCTT against Itgb7", "z-score": "inactive: -0.247"},
      {"sequence": "GCAAUAAAAACUACACUAGTT against Agpat3", "z-score": "inactive: 1.92"},
      {"sequence": "GGCUUUUGUGGACUUUACATT against Capn12", "z-score": "inactive: 0.196"}
    ]}
  ]
}
